The text below walks through data of patent US20170183307 (published 2017).

A short description of the series: general procedure: solution-phase peptide synthesis; EDC.HCl/HOBt.
Setting [1] is: late stage modification step, HPLC, hydrochloride.
[2] abbreviates: late stage modification step, hydrochloride.
[3] abbreviates: coupling step, HPLC, hydrochloride.
Where [4] appears, read: late stage modification step, HPLC, hydrochloride, run 1.
[5] abbreviates: late stage modification step, HPLC, hydrochloride, run 2.

Take “Boc-D-Phe-D-Phe-D-Leu-D-Lys(Boc)-α-Boc-Pic-OH”: the “crude HPLC purity” value under setting [1] worked out at 80.8%. The same substance returned a step yield under setting [2] of 99.3%.
“Boc-D-Phe-D-Phe-D-Leu-D-Lys(Boc)-α-Boc-Pic-OMe”: the “crude HPLC purity” value under setting [3] amounted to 98.6%.
The same measure, in the same setting: the same measure for “Cbz-D-Phe-D-Leu-D-Lys(Boc)-α-Boc-Pic-OMe”: 97.6%.
For D-Phe-D-Leu-D-Lys(Boc)-α-Boc-Pic-OMe, the “crude HPLC purity” value under setting [1] turned out to be 97.3%.
In the case of D-Phe-D-Phe-D-Leu-D-Lys-Pic, the “crude HPLC purity” value came to 99.7% under setting [4]; 95.4% under setting [5]; 93.1% (late stage modification step, HPLC, hydrochloride, run 3); 95.2% (late stage modification step, HPLC, hydrochloride, run 4); 79.2% (late stage modification step, HPLC, hydrochloride, run 5). The step yield under setting [2] was 96.4%.
Consider “D-Phe-D-Phe-D-Leu-D-Lys-Pic-OMe hydrochloride”, for which the “crude HPLC purity” value is, setting by setting: (late stage modification step, HPLC, TFA salt) 95.2%; under setting [4], 98.2%; under setting [5], 95.4%. For the same substance, the step yield by setting is: (late stage modification step, TFA salt) 93.0%; (late stage modification step, hydrochloride, run 1) 99.0%; (late stage modification step, hydrochloride, run 2) 96.7%; (purification step, hydrochloride) 80%. In addition, the “final HPLC purity” value (purification step, HPLC, hydrochloride) stood at 99.2%.
